We go through two compounds from article PMC12518634, “The noncanonical function of liver-type phosphofructokinase potentiates the efficacy of HDAC inhibitors in cancer” (Signal Transduction and Targeted Therapy, 2025).

The test system of one experiment is 783C-6. As to the kind of experiment: High-throughput drug screen, CellTiter-Glo viability, 72 h. Format: cell-based, human. As for the experimental part: (§1) The cells were seeded and incubated with a gradient of concentrations of drugs for 72 h, after which the cell viability was assessed (Supplementary Fig. 1a). The drug library primarily comprises epigenetic drugs, including HDAC inhibitors, DNA methyltransferase inhibitors, and histone demethylase inhibitors, as well as conventional chemotherapies and kinase inhibitors (Supplementary Fig. 1b and Supplementary Table 1). […] To identify novel therapeutics against CCA, we conducted a high-throughput screen employing PerkinElmer’s integrated robotic Explorer G3 workstations. […] Following dilution to five specified concentrations, drugs were dispensed into 96-well plates in the sequence detailed in Supplementary Fig. 1a. […] We then quantified cell viability via the CellTiter-Glo luminescent assay according to the manufacturer’s protocol. Signal detection was carried out on a Synergy2 plate reader operated by Gen5 software (BioTek). For data processing, the raw luminescence data were processed through the Breeze pipeline for curve fitting, yielding quality control metrics (e.g., Z-factors) and drug response parameters (AUC and DSS), as adapted from previous work.[54] Drug responses were evaluated on the basis of the drug sensitivity score (DSS), and a cutoff of ≥10 was used to define efficacy. […]
On the technique in general: Cellular ATP, detected with luciferase, serves as a proxy for viable cell number.

For a further experiment, the system named is 1405R3. The experiment is described as above. In kind it is cell-based. To be noted: Homo sapiens, 1405R3 DSRT analysis, fitted dose-response curve, Min.Conc.tested 1, Max.Conc.tested 10000, GI50. The protocol:
as §1

In general, EC50 refers to the concentration giving half of the maximal effect. For `COc1cc2nc(N3CCCC3)nc(NCCCCCN3CCCC3)c2cc1OC` [UNC0379], the 50% effective concentration (EC50) with 783C-6 (783C-6 cells, DSRT analysis, CellTiter-Glo viability, concentrations tested 1 to 10000 (unit inferred), GI50) turned out to be 2140 nM.
Turning to `O=C(CCCCCCC(=O)Nc1ccccc1)NO` [vorinostat, reference compound], the EC50 was found to be 867 nM in the experiment with 783C-6 (Homo sapiens) and 1190 nM with 1405R3.
